Data: patent US20110056516A1, “PROCESS FOR SURFACE TREATMENT OF METALS” (priority 2007, published 2011)

What was measured:
[1] = 304 SS, 150° F., 5 minutes pickle; H2SO4 10%, Modified H2SO4 16%
[2] = HRS, 150° F., 5 minutes pickle; H2SO4 10%, Modified H2SO4 16%

O=S(=O)(O)O [H2SO4, sulfuric acid]
Etch [1]: 0.739 gm/ft^2 and 0.814 gm/ft^2 | Etch [2]: 2.369 gm/ft^2 and 2.424 gm/ft^2

Where “and” joins values, the source holds several entries; their conditions need not be identical. Equal values may be shown once. Read-outs that look alike come from different tables or passages of the source.
